Tests used:
pig skin = experiment: Local cutaneous blood flow in pigs after topical application (laser Doppler); assay type: in vivo
Procedure: A stable depth of sedation was maintained with continuous intravenous methohexital, titrated to a minimal lid reflex and a regular respiratory rate. Throughout the experiment, the animals spontaneously breathed through a “snout-cone” connected to a standard anesthesia machine delivering 100% oxygen. The dorsal surface of the animal was cleaned with tepid water. Ten sites (2×2 cm each) were defined on the dorsal surface of the animal with permanent marker. […] MAP was recorded at the start and end of each Doppler scan. A dose volume of 0.1 mL of vehicle, control, or test article was applied to each site. L-arginine monohydrate and sildenafil citrate were prepared in commercially available Veecogel Cream base formulation (available from PCCA, 9901 South […], Houston, Tex., USA) containing […], Coconut oil, Capryloic Acid, […], Squalane, Boric Acid, Polysorbate 80, Sorbitan Monooleate 80, Simethicone, Butylated hydroxytoluene. Sildenafil citrate 1% was dissolved in propylene glycol 2% and combine with base with constant mixing. L-arginine monohydrate 10% and 1% were dissolved in 2% propylene glycol and combined with the Veecogel described above. No two adjacent sites were administered the same concentration of any control or test article and administration was temporally spaced to allow at least 2 minutes between dosing each site. […] Blood flow at the untreated, control site was measured immediately prior to and immediately after the measurements at the treated sites. […] Serum levels of local drugs were not measured. […] Changes in blood flow are expressed as a percent change from control blood flow. […] Thus, the change in cutaneous blood flow at a treatment site can be determined by the formula: [formula] where Sx is the blood flow at an injected site X min after application, So is the baseline flow at that site prior to application, Cx is the flow at the control site X min after the application, and Co is the blood flow at the control site at the same time that the baseline flow measurements were made.

[1] = test system: hands of normal human volunteers; experiment: Skin temperature recovery of the hand after cold water immersion (infrared camera); assay type: in vivo; conditions: before treatment
Procedure: The effects of L-arginine and sidelnafil citrate in the regulation of human blood flow was determined by measuring the rate of skin temperature recovery in the hands of normal human volunteers following a period of cold water immersion. The measurements were performed at room temperature 25° C., for a period of 30 minutes after acclimatization. L-arginine monohydrate and sildenafile citrate were prepared in commercially available Veecogel Cream base formulation containing Krisgel 100™, Coconut oil, Capryloic Acid, Triglicerides, Squalane, Boric Acid, Polysorbate 80, Sorbitan Monooleate 80, Simethicone, Butylated hydroxytoluene. Sildenafil citrate 1% was dissolved in propylene glycol 2% and combine with base with constant mixing. L-arginine monohydrate 10% and 1% were dissolve in 2% propylene glycol and combine with the Veecogel described above.
Skin temperature was measured with an infrared camera FLIR T300 (FLIR Systems, Inc., Boston, Mass., USA). Changes in skin temperature were determined after cooling of hand for 2 minutes in ice water by analyzing individual thermal images with FLIR Quick Report software. The effects of test drugs were determined following application of substance to the cooled hand. […]

Row | SMILES | Local cutaneous blood flow, FLOW (MV), Baseline (pig skin; dose 1%) [MV] | Local cutaneous blood flow, FLOW (MV), Baseline (pig skin; dose 10%) [MV] | Baseline Temp (starting hand temperature after cooling for 2 minutes) ([1]; dose 10% W/v) [°C] | Baseline Temp (starting hand temperature after cooling for 2 minutes) ([1]; dose 1% W/v) [°C]
1 | N=C(N)NCCC[C@H](N)C(=O)O [Arginine, L-arginine] | 0.52 | 3.4 | 12 | 
2 | CCCc1nn(C)c2c(=O)[nH]c(-c3cc(S(=O)(=O)N4CCN(C)CC4)ccc3OCC)nc12 [Sildenafil, 5-[2-ethoxy-5-(4-methyl-1-piperazinylsulphonyl)phenyl]-1-methyl-3-n-propyl-1,6-dihydro-7H-pyrazolo[4,3-d]pyrimidin-7-one] | −13.58 |  |  | 14
